Experimental data taken from article PMC2585475.
No constants are given. Whether binding was seen depends on the method and setting. Binding seen in cells or lysates may run through a third protein. Some entries that bind do so weakly or less than the wild type. Sequences can lack the tags named with a protein.

Protein sequences, listed by entry. Tags and fused reporters are not part of them.
UniProt Q00610: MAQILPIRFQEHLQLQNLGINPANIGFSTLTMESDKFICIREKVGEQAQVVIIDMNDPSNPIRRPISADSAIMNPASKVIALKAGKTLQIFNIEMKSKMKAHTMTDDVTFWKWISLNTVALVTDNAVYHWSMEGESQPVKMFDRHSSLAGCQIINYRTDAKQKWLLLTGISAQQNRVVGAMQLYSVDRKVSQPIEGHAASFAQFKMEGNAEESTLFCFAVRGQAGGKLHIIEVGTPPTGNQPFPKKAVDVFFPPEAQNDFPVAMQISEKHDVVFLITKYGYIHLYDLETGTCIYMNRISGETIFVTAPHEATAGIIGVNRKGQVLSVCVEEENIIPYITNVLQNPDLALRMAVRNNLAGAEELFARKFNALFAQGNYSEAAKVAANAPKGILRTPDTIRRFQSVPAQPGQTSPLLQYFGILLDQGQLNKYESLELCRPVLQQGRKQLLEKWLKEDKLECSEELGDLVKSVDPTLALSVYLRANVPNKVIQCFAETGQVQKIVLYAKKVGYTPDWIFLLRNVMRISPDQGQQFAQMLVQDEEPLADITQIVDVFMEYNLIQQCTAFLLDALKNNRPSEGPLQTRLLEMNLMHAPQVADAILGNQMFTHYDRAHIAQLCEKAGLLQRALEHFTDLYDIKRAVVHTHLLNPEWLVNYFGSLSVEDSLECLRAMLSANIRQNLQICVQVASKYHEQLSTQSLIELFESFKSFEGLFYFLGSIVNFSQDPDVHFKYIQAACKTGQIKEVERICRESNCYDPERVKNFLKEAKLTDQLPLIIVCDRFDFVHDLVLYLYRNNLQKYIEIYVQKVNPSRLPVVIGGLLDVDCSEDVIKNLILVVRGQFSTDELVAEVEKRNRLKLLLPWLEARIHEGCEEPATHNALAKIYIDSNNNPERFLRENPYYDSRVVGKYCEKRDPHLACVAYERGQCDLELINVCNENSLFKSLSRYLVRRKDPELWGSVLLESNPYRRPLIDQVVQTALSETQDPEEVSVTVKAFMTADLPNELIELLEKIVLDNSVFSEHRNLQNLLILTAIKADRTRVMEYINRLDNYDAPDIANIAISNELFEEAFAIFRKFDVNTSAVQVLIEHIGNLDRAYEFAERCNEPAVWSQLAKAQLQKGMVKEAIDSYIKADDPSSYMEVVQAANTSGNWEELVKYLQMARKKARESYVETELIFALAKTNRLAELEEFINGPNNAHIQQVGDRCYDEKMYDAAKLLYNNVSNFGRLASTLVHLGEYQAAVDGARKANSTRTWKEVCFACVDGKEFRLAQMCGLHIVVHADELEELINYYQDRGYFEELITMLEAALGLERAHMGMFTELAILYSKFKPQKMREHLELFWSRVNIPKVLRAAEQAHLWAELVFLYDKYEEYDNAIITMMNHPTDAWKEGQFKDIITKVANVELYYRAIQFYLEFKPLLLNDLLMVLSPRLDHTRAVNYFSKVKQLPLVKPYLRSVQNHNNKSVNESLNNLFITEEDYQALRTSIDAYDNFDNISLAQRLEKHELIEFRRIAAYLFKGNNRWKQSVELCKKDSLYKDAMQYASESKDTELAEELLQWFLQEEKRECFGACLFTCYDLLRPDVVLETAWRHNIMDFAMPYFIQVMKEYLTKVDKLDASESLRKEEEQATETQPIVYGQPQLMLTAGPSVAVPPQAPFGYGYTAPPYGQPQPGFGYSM

Target: T1, clathrin light chain A fused with mfGFP (CLCA-mfGFP) (human) (UniProt P09496)
T1 sequence: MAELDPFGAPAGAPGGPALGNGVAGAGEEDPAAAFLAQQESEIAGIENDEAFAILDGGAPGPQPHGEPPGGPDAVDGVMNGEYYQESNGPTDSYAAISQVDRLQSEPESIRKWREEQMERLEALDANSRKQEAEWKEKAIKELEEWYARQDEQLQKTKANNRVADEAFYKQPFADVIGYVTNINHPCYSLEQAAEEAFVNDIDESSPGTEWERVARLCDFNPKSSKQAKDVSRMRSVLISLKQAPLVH
Assay: pull-down; HiTrap streptavidin column by the SBP tag of CLCA-mfGFP; triskelions extracted from HeLa microsomes; buffer A (0.5 M NaCl, 20 mM MOPS pH 7.4, 0.3 M sucrose, 2 mM DTT); eluted with 2.5 mM d-desthiobiotin; SDS-PAGE, CBB stain

binding: binds
Substance: clathrin heavy chain (CHC) (from UniProt Q00610 1-1675)
